Data from patent publication US11523610B2, “Regulating plant growth using a diapocarotenoid” (King Abdullah University of Science and Technology, priority 2018, dated 2022).

Assay: LC-MS quantification of anchorene in Arabidopsis tissues
Protocol: About 30 mg (30-40 mg) of freeze-dried and ground Arabidopsis seedlings tissues were extracted using 1 mL of acetonitrile with anti-oxidant [0.1% butylated hydroxytoluene (BHT)] for 15 min in an ultrasonic bath (Branson® 5510EDTH, 25° C., 15 min), followed by centrifugation for 8 min at 13000 rpm at 4° C. The collected supernatant was dried using a concentrator (Labconco RapidVap® System). The extract was derivatized (SCHEME 3) with 50 μL of derivatization solution containing 5 mg/mL derivatization reagent (N^2,N^2,N^4,N^4-tetraethyl-6-hydrazineyl-1,3,5-triazine-2,4-diamine) (Chemspace) and 1% formic acid in methanol at 37° C. for 15 min. Then the sample solution was diluted to 150 μL with 1% formic acid in methanol and filtered by using 0.22 μm filter before LC-MS analysis.
The quantitative analysis of derivative anchorene were carried out on HPLC-Q-Trap MS/MS. Chromatographic separation was achieved on an Acquity UPLC CSH C18 column (50×2.1 mm; 1.7 μm; Waters) using a mobile phase consisting of water: acetonitrile (95:5, v:v, A) and pure acetonitrile (B), both containing 0.1% formic acid. A gradient was applied, starting with 10% B and increasing to 40% B over 5 min. Then 15% B was increased
within 10 min followed by an increase of 45% B over 2 min. And then 100% B was maintained for 10 min. To equilibrate the column before the next run, the mobile phase was adjusted back to 10% B in 1 min and this concentration was maintained for 8 min prior to the next sample injection. A flow rate of 0.15 mL/min and a column temperature of 40° C. were maintained throughout the run. The eluent of the column was introduced to the mass spectrometer using turbo spray ion source in positive mode. The injection volume was 10 μL. The conditions of the mass spectrometer were set as following: curtain gas: 30; ion spray voltage: 5 kV; temperature: 400° C.; ion source gas 1: 30; ion source gas 2: 40; declustering potential, 55; entrance potential: 10; collision energy: 25; collision cell exit potential: 10. […]

## C\C(C=O)=C/C=C/C=C(\C)C=O [anchorene, 12,12′-diapocarotene-12,12′-dial]
12-day-old seedlings, root
  endogenous anchorene content in root tissues: 0.02±0.001 pmol/mg dry weight
12-day-old seedlings, shoot
  endogenous anchorene content in shoot tissues: 0.08±0.003 pmol/mg dry weight
Shoot higher than root
  anchorene content shoot versus root: about 4 fold
